# Library screen at single concentrations

Chains of the proteins cited; added tags and fusions are not shown. Residues count along the entry.
UniProt Q4DA54, 1-478: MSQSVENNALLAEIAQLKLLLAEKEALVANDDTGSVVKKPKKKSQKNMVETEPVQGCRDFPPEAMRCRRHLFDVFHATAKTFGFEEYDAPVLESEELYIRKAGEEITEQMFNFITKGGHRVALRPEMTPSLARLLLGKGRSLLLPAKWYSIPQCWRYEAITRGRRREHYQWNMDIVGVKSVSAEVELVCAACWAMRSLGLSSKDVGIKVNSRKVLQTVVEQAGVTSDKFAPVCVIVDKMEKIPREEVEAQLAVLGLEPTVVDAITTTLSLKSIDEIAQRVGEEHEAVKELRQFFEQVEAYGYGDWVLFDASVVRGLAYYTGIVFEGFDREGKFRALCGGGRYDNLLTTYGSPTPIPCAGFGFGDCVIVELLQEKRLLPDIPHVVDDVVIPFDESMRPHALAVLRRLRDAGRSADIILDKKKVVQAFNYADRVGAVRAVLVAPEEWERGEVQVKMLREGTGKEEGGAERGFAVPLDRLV
UniProt A4I591, 1-473: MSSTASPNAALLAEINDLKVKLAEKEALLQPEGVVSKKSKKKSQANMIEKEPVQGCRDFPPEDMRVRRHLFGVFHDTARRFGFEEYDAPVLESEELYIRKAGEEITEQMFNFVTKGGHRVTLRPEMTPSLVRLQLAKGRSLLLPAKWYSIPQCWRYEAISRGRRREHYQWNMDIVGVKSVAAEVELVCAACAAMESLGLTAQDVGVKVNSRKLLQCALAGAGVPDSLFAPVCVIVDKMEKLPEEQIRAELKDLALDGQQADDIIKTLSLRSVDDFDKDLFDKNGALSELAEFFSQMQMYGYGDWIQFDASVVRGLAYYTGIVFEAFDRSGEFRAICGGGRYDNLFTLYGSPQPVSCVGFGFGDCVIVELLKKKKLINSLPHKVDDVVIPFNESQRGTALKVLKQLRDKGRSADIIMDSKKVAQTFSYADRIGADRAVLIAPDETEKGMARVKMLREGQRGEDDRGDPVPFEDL
UniProt P9WPC5, whole entry: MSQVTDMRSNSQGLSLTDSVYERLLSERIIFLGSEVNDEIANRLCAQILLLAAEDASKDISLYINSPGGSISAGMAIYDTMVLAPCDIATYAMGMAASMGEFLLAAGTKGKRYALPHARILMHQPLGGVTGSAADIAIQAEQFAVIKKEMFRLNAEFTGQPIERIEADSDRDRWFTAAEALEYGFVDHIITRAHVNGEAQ
UniProt P9WPC3, whole entry partner: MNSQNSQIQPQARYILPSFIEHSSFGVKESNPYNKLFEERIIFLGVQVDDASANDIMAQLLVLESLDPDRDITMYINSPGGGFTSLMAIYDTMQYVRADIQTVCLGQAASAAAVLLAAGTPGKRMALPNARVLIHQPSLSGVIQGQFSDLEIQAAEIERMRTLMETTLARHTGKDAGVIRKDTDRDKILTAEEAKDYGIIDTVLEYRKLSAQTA

The values are deposited in ChEMBL (CHEMBL3988442, “University of Dundee, Small-Polar-MMV Screening Library” (2021)).

Values are the deposited “Percent Effect”, in %. The record does not define 0% and 100%; most values in the screen are far below 50% and negative numbers occur (in some assays of this library far below -100). This is an unselected part of the compounds tested. Two or more numbers in one place are separate tests of the same structure; such repeats can differ widely. A dash means the value is not listed here; it may have been measured.

Toxoplasma: 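Assay of Toxoplasma gondii numbers, read through their beta-galactosidase reporter with a colour substrate. Concentration: 10 µM. Higher reads as fewer parasites (inferred from which compounds were picked for retests). About 67,000 compounds were tested under these conditions; 0.38% (about 260) showed 50% or more at least once.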
Leishmania in macrophages: 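Cell assay of Leishmania donovani living inside macrophages; the read-out is not stated. Compounds at 30 µM. Higher reads as stronger inhibition (inferred: compounds with an IC50 in retests scored well above the rest). About 69,000 compounds were tested under these conditions; 1.5% (about 1,000) showed 50% or more at least once.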
TcHisRS: 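Enzyme assay of histidyl-tRNA synthetase; the read-out is not stated. Target: Histidine-tRNA ligase, Trypanosoma cruzi CL Brener (UniProt Q4DA54). Compounds at 30 µM. Higher reads as stronger inhibition (inferred: compounds with an IC50 in retests scored well above the rest). About 69,000 compounds were tested under these conditions; 0.045% (about 31) showed 50% or more at least once.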
LiHisRS: 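Enzyme assay of histidyl-tRNA synthetase; the read-out is not stated. Target: Histidine-tRNA ligase, Leishmania infantum (UniProt A4I591). Tested at 30 µM. Direction is inferred from retests: higher values go with stronger inhibition. The assay is labelled LdHisRS but filed under L. infantum. Of about 69,000 compounds tested this way, about 410 (0.6%) reached 50% or more in at least one test.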
ClpP1P2: 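ClpP1P2, Mycobacterium tuberculosis (UniProt P9WPC5 and UniProt P9WPC3). Protease assay of ClpP1P2, read by the AMC dye that it sets free. Tested at 50 µM. Higher reads as stronger inhibition, judged from the few compounds that gave an IC50. Most other retested compounds had strongly negative values. Size under these conditions: about 69,000 compounds, about 10 of them at 50% or above in at least one test.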
T. brucei: 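Whole-parasite assay of Trypanosoma brucei over 72 hours; the read-out is not stated. Tested at 30 µM. Direction is inferred from retests: higher values go with stronger inhibition. Values scatter widely below zero; nearly all retest evidence comes from the higher of the two concentrations used. Of about 64,000 compounds tested this way, about 940 (1.5%) reached 50% or more in at least one test.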

structure	Toxoplasma	Leishmania in macrophages	TcHisRS	LiHisRS	ClpP1P2	T. brucei
CC(C)CCN(C(=O)c1cccc(NC(N)=O)c1)C1CC1	-0.3462	13.25	-3.59	12.7	1.723	-10.02
CC(O)CN(C)S(=O)(=O)c1ccc(C#N)cc1F (stereo unspecified)	-10.01	11.68	5.455	17.78	-8.389	-64.56
Cc1ccc(C2(O)CCN(C(=O)Cn3cc(C)c(=O)[nH]c3=O)CC2)nc1	2.037	35.45	9.045	22.35	6.641	-5.395
COc1ccccc1CN1CC(O)CN(S(=O)(=O)C(C)C)CC1=O (stereo unspecified)	0.4343	5.161	8.989	18.37	22.17	-10.07
c1ccc(N2CCC3(COCCN(c4ncccn4)C3)C2)nc1 (stereo unspecified)	-	-	-1.22	25.64	2.169	-
c1ccc(-n2cc(CN3CCCC(Cn4cncn4)C3)nn2)cc1 (stereo unspecified)	-3.318	16.94	4.135	10.81	6.027	-3.909
CCN(CC)CCc1nc2c([nH]1)CC(c1ccc(Cl)cc1)CNC2=O (stereo unspecified)	-0.05804	1.483	5.028	10.53	-9.029	3.74
Cl.O=C(c1ccoc1)N1CCC(NCc2ccccc2Cl)CC1	0.1604	6.566	-	-	-	14.08
CNc1ncccc1C(=O)N1CCN(Cc2ccc(C)cc2)C(=O)C1C (stereo unspecified)	-10.39	7.866	5.128	10.2	-11.89	5.661
CC(C)c1noc(-c2ccc(-n3cnc(C(=O)O)c3)nc2)n1	4.593	10.01	8.247	14.29	5.776	0.3812
CN1CCN(Cc2cscn2)CC(C(=O)N(C)C)C1 (stereo unspecified)	0.05546	3.978	-4.918	-63.5	-1.326	6.22
O=C1NC2(CCc3ccccc31)CCN(C(=O)c1ccncc1)C2 (stereo unspecified)	-15.95	-8.65	4.981	7.194	-8.821	1.739
O=c1[nH]nc(CNc2ncc(Br)cn2)[nH]1	3.123	2.529	9.524	24.44	-4.766	-11.81
CN(C)c1ccc(CN(CC2CCCO2)C(=O)c2csnn2)cc1 (stereo unspecified)	0.3352	2.539	8.205	8.163	-2.046	-17.19
Cc1ccc2c(c1)C(NCc1nccn1Cc1ccccc1)CCCO2 (stereo unspecified)	-17.32	23.59	-13.33	5.983	-14.05	-19.28
COCCn1cc2c(n1)C(CNCc1ccco1)OCC2 (stereo unspecified)	-	-	6.952	3.846	4.096	-
CCC(=O)NCC(=O)N(C)C(c1ccc(Cl)cc1)c1cccnc1 (stereo unspecified)	-	-36.38	6.931	4.348	7.308	-44.76
O=C(Nc1ccccc1OCCc1ccccn1)NC1CCOCC1	-0.863	-10.62	1.911	26.76	-2.136	-50.66
CNC(=O)c1n[nH]c2c1C(c1cccc3c1OC(C)(C)C3)CC(=O)N2 (stereo unspecified)	13.71	11.46	2.809	25.64	-1.264	8.991
CNC(=O)[C@@]12CCO[C@@H]1CCN(Cc1c(C)noc1C)C2	-	-	4.202	4.587	5.328	-
COc1cccc(COCC(=O)N2CCCC(N3CCCC3)CC2)c1 (stereo unspecified)	-10.87	17.34	23.95	12	7.793	-18
CC(C)c1noc(CN2CCOCC2C)n1 (stereo unspecified)	3.745	17.36	8.911	14.29	-11.14	-17.64
Cl.O=C1CC2(CCCNC2)C(=O)N1Cc1ccc(Cl)cc1 (stereo unspecified)	4.401	15.9	-	-	-	7.931
CC(=O)N1[C@H](CN(C)C)C[C@@H]2CN(C(=O)c3ccno3)CC[C@@H]21	-	-	3.883	9.615	4.392	-
COCCOc1ncccc1C(=O)Nc1ccc(-n2cncn2)c(F)c1	1.27	14.88	1.141	34.4	13.8	16.69
CCCN1CCC[C@]2(CCC(=O)N2Cc2ccncc2)[C@H]1CC	-	-	4.854	11.54	-6.199	-
COc1ccc2c(c1)C(C(=O)N(C)CCn1ccnc1C)CC(=O)N2 (stereo unspecified)	-5.862	3.474	7.263	5.263	1.057	-16.56
CS(=O)(=O)N1CC2(CCCN2Cc2ccc(Cl)cc2)Cc2ccccc21 (stereo unspecified)	32.24	1.557	10.06	5.517	15.01	-
COc1cccc(N2CCN(C(=O)c3noc4c3CCCC4)CC2)c1	-7.004	9.161 & 38.08	4.878	31.58	-11.63	-5.128
O=C(NCCO)C1(Cc2ccccc2-c2ccncc2)CCOCC1	-3.731	23.57	3.042	2.069	-4.462	-12.36
COc1ccc(-c2nccn2CCN2CCCCC2)c(OC)c1OC	-7.125	-29.53	8.442	11.29	4.062	-11.97
CS(=O)(=O)N1CCC(C(=O)NCCNc2ncccn2)CC1	4.093	27.71	-1.149	18.46	7.692	17.24
CCC(CC#N)n1ccc(C(F)(F)F)n1 (stereo unspecified)	-1.99	-4.314	0	16.49	4.156	-12.78
Cc1cc(-n2cccn2)ccc1CN1CCC(O)(CN2CCCCC2)C1 (stereo unspecified)	-	45.3	6.897	16.13	2.907	2
O=C(c1cnccn1)N1CCC2(CC1)C(=O)NCC2c1ccccc1 (stereo unspecified)	-3.506	12.42	-22.78	-10.34	2.502	-43.43
COc1cc(CNCc2ccc(C(C)O)cc2)cc2c1OCO2 (stereo unspecified)	17.02	32.99	0.3831	30.77	9.52	8.941
c1cnc(NC2COC3(CCN(Cc4cccs4)CC3)C2)nc1 (stereo unspecified)	-	-	5.521	22.22	-1.792	-
COc1cccc(CC(=O)N2CC[C@@H]3NC(=O)CC[C@@H]32)c1	-	-	6.452	21.05	-1.176	-
CN(C)CCN1CC(C(=O)N2CCC(c3cccc(O)c3)CC2)CC1=O (stereo unspecified)	-7.322	5.921	8.293	15.25	-13.83	-25.35
Cc1cccc(CN2CCc3nnc(CO)n3CC2)n1.O=C(O)C(F)(F)F	2.957	8.692	-	-	-	-1.882
Cc1ccc(C(C)NC(=O)N2CCCN(CC(F)F)CC2)s1 (stereo unspecified)	7.926	16.29	1.587	9.333	1.468	-6.062
Cc1nc(CCCNC(=O)c2c(F)cc(F)cc2F)n[nH]1	-5.553	-15.3	5.941	9.524	-0.1561	-19.51
COCCNC(=O)C1CCCN1S(=O)(=O)c1sc(=O)[nH]c1C (stereo unspecified)	3.953	12.32	5.051	-9.524	-2.254	4.439
O=C(c1ccccn1)N1CCC2(CNS(=O)(=O)c3cnccc3O2)C1 (stereo unspecified)	-0.7676	3.872	-298.8	13.79	13.79	-
CN(Cc1ccccn1)C(=O)Nc1cc(C(F)(F)F)c[nH]c1=O	-7.752	-37.32	9.524	19.18	-3.492	-87.92
CC(CO)NC(=O)c1ccc(NCc2cc(C#N)ccc2F)cc1 (stereo unspecified)	-8.369	20.21	3.017	6.329	-13.23	-5.377
CCC(CNC1CCN(C(=O)N(C)C)CC1)Oc1ccccc1C (stereo unspecified)	-2.582	-10.97	-0.6452	5.051	19.23	-31.38
CNC(=O)CNCc1c[nH]nc1-c1cc2ccccc2o1.Cl	17.41	28.42	-	-	-	-6.642
Cn1cnc2c1C(COCC1CCOCC1)CN(C1CCOCC1)C2 (stereo unspecified)	-	-	4.918	12.41	9.535	-
CNC(=O)[C@@H](c1ccccc1)N1CCC[C@H]1C(=O)NC1CCCCC1.Cl	-0.5405	6.318	-	-	-	-5.13
CCN(C)C(=O)c1ccc2c(c1)C(c1nc[nH]n1)CN2S(C)(=O)=O (stereo unspecified)	-19.37	31.37	5.806	11.11	4.029	-13.72
Cc1nc2c(c(NCc3ccccc3)n1)CCN(C(=O)C1CCC1)CC2	12.65	-5.791	-11.11	18.03	-16.33	-0.1413
COc1cc(CNCc2ccco2)ccc1OCCO.Cl	10.75	36	-	-	-	-11.76
Cl.Cn1nc(C2CCCN(Cc3ccc(F)c(F)c3)C2)c2nccnc21 (stereo unspecified)	5.399	-0.719	-	-	-	19.08
Cc1nn(C)c(C)c1C1CCCN1Cc1cn2ccsc2n1 (stereo unspecified)	-14.63	15.14	0	17.95	-0.2118	-
CCn1cncc1C1CC(=O)Nc2c1c(C)nn2C (stereo unspecified)	-11.57	14.5	10.98	6.667	11.4	-18.76

Some entries from above, unchanged:

| structure | Toxoplasma | Leishmania in macrophages | TcHisRS | LiHisRS | ClpP1P2 | T. brucei |
|---|---|---|---|---|---|---|
| `Cl.O=C(c1ccoc1)N1CCC(NCc2ccccc2Cl)CC1` | 0.1604 | 6.566 | - | - | - | 14.08 |
| `CCN(C)C(=O)c1ccc2c(c1)C(c1nc[nH]n1)CN2S(C)(=O)=O` (stereo unspecified) | -19.37 | 31.37 | 5.806 | 11.11 | 4.029 | -13.72 |
| `COc1ccccc1CN1CC(O)CN(S(=O)(=O)C(C)C)CC1=O` (stereo unspecified) | 0.4343 | 5.161 | 8.989 | 18.37 | 22.17 | -10.07 |
| `CN(Cc1ccccn1)C(=O)Nc1cc(C(F)(F)F)c[nH]c1=O` | -7.752 | -37.32 | 9.524 | 19.18 | -3.492 | -87.92 |
| `CCC(=O)NCC(=O)N(C)C(c1ccc(Cl)cc1)c1cccnc1` (stereo unspecified) | - | -36.38 | 6.931 | 4.348 | 7.308 | -44.76 |
| `CS(=O)(=O)N1CCC(C(=O)NCCNc2ncccn2)CC1` | 4.093 | 27.71 | -1.149 | 18.46 | 7.692 | 17.24 |
| `CNC(=O)[C@@H](c1ccccc1)N1CCC[C@H]1C(=O)NC1CCCCC1.Cl` | -0.5405 | 6.318 | - | - | - | -5.13 |